Assay results as given in ChEMBL document CHEMBL1155912, “Synthesis of 6- or 4-functionalized indoles via a reductive cyclization approach and evaluation as aromatase inhibitors” (Bioorg Med Chem Lett, 2008).

Target: T1, Aromatase (Homo sapiens, UniProt P11511)
T1 sequence (P11511 whole entry): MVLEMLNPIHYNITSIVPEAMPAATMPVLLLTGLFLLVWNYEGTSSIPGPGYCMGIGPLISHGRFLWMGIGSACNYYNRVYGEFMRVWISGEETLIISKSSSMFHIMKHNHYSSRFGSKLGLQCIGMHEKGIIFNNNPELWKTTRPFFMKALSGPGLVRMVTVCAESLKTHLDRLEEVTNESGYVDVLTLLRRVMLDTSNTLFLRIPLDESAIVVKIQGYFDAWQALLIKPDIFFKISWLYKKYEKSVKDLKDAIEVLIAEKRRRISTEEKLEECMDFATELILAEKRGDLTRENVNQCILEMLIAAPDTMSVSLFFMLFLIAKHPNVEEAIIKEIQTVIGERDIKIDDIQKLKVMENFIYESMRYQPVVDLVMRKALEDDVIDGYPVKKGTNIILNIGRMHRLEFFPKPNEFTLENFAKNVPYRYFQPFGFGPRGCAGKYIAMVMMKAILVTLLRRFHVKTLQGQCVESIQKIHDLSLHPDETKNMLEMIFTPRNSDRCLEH
Assay type: microsomes, Placenta, Microsomes

IC50: 0.01 µM
Structure (SMILES): CC(C)(C#N)c1cc(Cn2cncn2)cc(C(C)(C)C#N)c1 [ANASTROZOLE]
